# Data from PubChem BioAssay AID1671190 (National Center for Advancing Translational Sciences (NCATS), 2021).
# By UniProt entry, the sequences of proteins in these tests, tags left out. Where a name states a change or a piece, a line headed by the entry shows the natural chain unless it says otherwise.
# UniProt P18054: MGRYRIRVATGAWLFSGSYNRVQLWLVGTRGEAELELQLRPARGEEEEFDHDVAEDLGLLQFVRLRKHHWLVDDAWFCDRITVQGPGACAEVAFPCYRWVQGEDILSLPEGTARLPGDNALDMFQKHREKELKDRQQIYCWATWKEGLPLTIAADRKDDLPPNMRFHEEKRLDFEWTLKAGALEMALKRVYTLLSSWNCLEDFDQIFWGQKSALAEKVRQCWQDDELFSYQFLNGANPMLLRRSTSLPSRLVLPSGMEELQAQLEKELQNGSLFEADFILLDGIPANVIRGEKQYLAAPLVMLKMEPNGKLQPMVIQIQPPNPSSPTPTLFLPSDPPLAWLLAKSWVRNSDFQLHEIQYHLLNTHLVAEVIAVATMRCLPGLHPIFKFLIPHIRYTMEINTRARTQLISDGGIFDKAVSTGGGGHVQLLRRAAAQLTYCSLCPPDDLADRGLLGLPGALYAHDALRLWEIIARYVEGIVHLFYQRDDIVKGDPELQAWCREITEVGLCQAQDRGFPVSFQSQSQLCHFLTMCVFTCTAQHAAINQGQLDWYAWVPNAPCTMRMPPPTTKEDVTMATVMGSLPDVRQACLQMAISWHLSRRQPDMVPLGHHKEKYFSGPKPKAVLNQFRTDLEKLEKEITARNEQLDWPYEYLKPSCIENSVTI
# Hit rate of the full screen: of about 580,000 compounds, about 6,100 (1.1%) were called active. Inconclusive means that the source gave no clear call. Such entries were picked first, then a sample of the others. Calls come from the whole dose curve; as a rule, active = well fitted inhibition curve with a large enough effect; inconclusive = small, poorly fitted or top-dose-only effect, or another doubt; inactive = no such curve, though single readings can be large or run the other way. Potencies of inconclusive entries are doubtful fits and often do not repeat.
# Molecular target: Polyunsaturated fatty acid lipoxygenase ALOX12 (Homo sapiens) (UniProt P18054)
# Test: Primary qHTS assay for inhibitors of human arachidonate 12S-lipoxygenase (ALOX12): Round 2
# Details: purified 12hLO, xylenol orange hydroperoxide absorbance; activity change, negative = inhibition: at 108 µM (top of the series) unless noted
# Procedure, shortened: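 Purified human 12hLO at 150 nM in 25 mM Hepes, 0.01% Triton X-100, pH 7.0, preincubated 15 min at room temperature with compound. Reaction started with 40 uM arachidonic acid, 30 min at room temperature. Hydroperoxide measured by Fe-xylenol orange, 573/405 nm absorbance ratio.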
# % is set by controls: 0 for no effect and ±100 for the full control effect; potency is the fitted concentration of half-maximal effect.
SMILES,Potency,"activity change, negative = inhibition"
O=C(CSc1ncnc2nc[nH]c12)c1ccccc1,"inconclusive: 44.7 µM [inhibitor, partial curve, poor fit]",–
O=C1Nc2ccc(-c3ccc4c(c3)OCO4)cc2C(=O)N2CCN(C(=O)NC3CCCCC3)C[C@H]12,"inconclusive: 22.4 µM [inhibitor, full curve]",–
CC1(c2ccccc2)N(Cc2ccccc2)C(=O)OC12CCN(Cc1ccc(C(=O)O)cc1)CC2 (stereo not drawn),–,inactive: 10.3%
NS(=O)(=O)c1ccc(CNC(=S)Nc2cc(S(=O)(=O)N3CCOCC3)ccc2Cl)cc1,"inconclusive: 44.7 µM [inhibitor, partial curve, poor fit]",–
Cc1ccc(-c2noc(CN(C(=O)CCCN3C(=O)c4ccccc4C3=O)C(C)C)n2)cc1,–,inconclusive: -44.8% [inhibitor]
CN(C)c1ccc(NC(=O)c2sc(SCC(=O)Nc3ccc(Br)cc3)nc2N)cc1,"inconclusive: 100 µM [inhibitor, single point]",–
CCOC(=O)c1cc(-c2ccc(C)cc2)n(CCC(=O)NCc2ccccc2)c1C,–,inactive: 2.76%
O=C(O)/C=C/c1ccc(-c2ccc(Br)cc2)o1,"inconclusive: 35.5 µM [inhibitor, partial curve, poor fit]",–
CC(=O)Nc1sc(N/N=C/c2ccc(O)cc2)nc1-c1ccc(C)cc1,"inconclusive: 56.2 µM [inhibitor, partial curve, poor fit]",–
NS(=O)(=O)c1ccc(CCNc2ncnc3sccc23)cc1,–,inactive: 2.09%
O=C(Nc1ccc(-c2nc3ccc(NC(=O)c4cccs4)cc3[nH]2)cc1)c1cccs1,"inconclusive: 56.2 µM [inhibitor, partial curve, poor fit]",–
O=C(Cc1ccccc1)NC(C(=O)O)C(O)c1ccc([N+](=O)[O-])cc1 (stereo not drawn),"inconclusive: 1 µM [inhibitor, partial curve, poor fit]",–
COC(=O)C1(NC(=O)CCNC(=O)C2CCCC2)CCC(C)CC1 (stereo not drawn),–,inactive: -5.95%
COc1ccc(-n2cnc3sc(-c4ccccc4)cc3c2=O)cc1,–,inconclusive: -33% [inhibitor]
COc1cccc(NC(=O)COc2ncnc3sc(C)c(C)c23)c1,"inconclusive: 126 µM [inhibitor, single point]",–
CCOC(=O)C(=O)C1=C(N2CCOCC2)/C(=C\c2cccc([N+](=O)[O-])c2)CC1,"inconclusive: 44.7 µM [inhibitor, partial curve]",–
CCOc1cc2c(cc1OCC)C(C(=O)O)C(c1cc(Br)c(O)c(OC)c1)N(C)C2=O (stereo not drawn),–,inactive: 0%
CC1CCC(NC(=O)c2cc(-c3ccc[nH]3)n[nH]2)CC1 (stereo not drawn),"inconclusive: 20 µM [inhibitor, full curve]",–

# Filtered by structure, the compounds so far with two or more sulfur atoms (4)
SMILES,Potency,"activity change, negative = inhibition"
NS(=O)(=O)c1ccc(CNC(=S)Nc2cc(S(=O)(=O)N3CCOCC3)ccc2Cl)cc1,"inconclusive: 44.7 µM [inhibitor, partial curve, poor fit]",–
CN(C)c1ccc(NC(=O)c2sc(SCC(=O)Nc3ccc(Br)cc3)nc2N)cc1,"inconclusive: 100 µM [inhibitor, single point]",–
NS(=O)(=O)c1ccc(CCNc2ncnc3sccc23)cc1,–,inactive: 2.09%
O=C(Nc1ccc(-c2nc3ccc(NC(=O)c4cccs4)cc3[nH]2)cc1)c1cccs1,"inconclusive: 56.2 µM [inhibitor, partial curve, poor fit]",–
